Experimental data: PubChem BioAssay AID2551 (National Center for Advancing Translational Sciences (NCATS), 2010)
Among all 310,000 compounds or so, about 17,000 (5.5%) were called active. The shares of active, inactive and inconclusive entries below differ from those in the screen. Calls follow the shape of the dose curve; as a rule, active = well fitted inhibition curve with a large enough effect; inconclusive = small, poorly fitted or top-dose-only effect, or effect the other way; inactive = no such curve, though single readings can be large or run the other way. Potencies beside an inconclusive call are fits to weak or partial responses and may not hold up.

The chains behind the UniProt entries cited, without tags or fusion partners. Where a name states a change or a piece, a line headed by the entry shows the natural chain unless it says otherwise.
UniProt P51450: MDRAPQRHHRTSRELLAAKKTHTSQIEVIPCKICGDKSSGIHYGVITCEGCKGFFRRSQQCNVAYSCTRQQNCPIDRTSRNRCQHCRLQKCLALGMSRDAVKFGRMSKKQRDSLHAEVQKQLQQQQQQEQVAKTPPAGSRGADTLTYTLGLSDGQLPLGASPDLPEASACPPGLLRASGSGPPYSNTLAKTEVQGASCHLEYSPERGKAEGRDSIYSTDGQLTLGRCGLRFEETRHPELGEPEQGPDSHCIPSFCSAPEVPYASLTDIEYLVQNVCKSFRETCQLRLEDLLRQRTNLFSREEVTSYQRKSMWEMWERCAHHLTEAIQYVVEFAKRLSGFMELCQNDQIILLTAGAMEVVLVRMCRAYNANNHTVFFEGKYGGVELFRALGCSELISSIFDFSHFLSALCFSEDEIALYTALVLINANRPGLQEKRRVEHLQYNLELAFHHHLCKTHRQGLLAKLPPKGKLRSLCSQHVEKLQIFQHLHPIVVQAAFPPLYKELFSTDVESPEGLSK

Target: Nuclear receptor ROR-gamma (Mus musculus) (UniProt P51450)
Assay: qHTS for inhibitors of ROR gamma transcriptional activity; also: nearly all actives have a fitted effect of over 60% in size
Details: Drosophila S2 Gal4-RORgamma UAS-luciferase reporter, 20 h; series mostly up to 53.6 µM
In short: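 Luciferase reporter read in Schneider cells carrying Gal4-RORγ (mouse) and UAS-Photinus luciferase; cells given compound 1 h before 700 uM copper sulfate induction, then incubated 20 h at ambient temperature.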
Potency is read from the fitted curve at half-maximal effect.

Compound	Potency
O=C(Nc1nc2c(s1)CCCC2)c1ccc(S(=O)(=O)N2CCCc3ccccc32)cc1	active: 11.2 µM
CCc1ccc(C(N)=S)cc1	active: 11.2 µM
COc1ccc(OC)c(-c2csc(NC(=O)Cn3[nH]c(=O)c4ccccc4c3=O)n2)c1	inconclusive: 35.5 µM [inhibitor, single point]
Cc1ccc(C(=O)Nc2ncc(Cc3ccc(SC(F)F)cc3)s2)cc1	active: 12.6 µM
Cc1cc(C)nc(-n2nc(C)cc2NC(=O)CN2CCc3ccccc3C2)n1	active: 0.794 µM
Cc1ccc(N2C(=O)CC(Sc3nc(C)cc(C)n3)C2=O)cc1 (configuration not stated)	inconclusive: 35.5 µM [inhibitor, single point]
O=C(CCc1ccc(O)c(O)c1)NNC(=S)Nc1ccc(Br)cc1Cl	active: 11.2 µM
Cc1cnc(CNc2nc(-c3ccc(C(=O)N(C)C)cc3)nc3ccccc23)cn1	inconclusive: 35.5 µM [inhibitor, single point]
CCc1ccc(C(=O)CSC2=C(C#N)C(c3ccco3)C(C(C)=O)=C(C)N2)cc1 (configuration not stated)	active: 6.31 µM
CCC(=O)N(CC)c1nc(-c2cc(OC)ccc2OC)cs1	inconclusive: 31.6 µM [activator, single point]
CCOc1ccc(NC(=O)c2ccc3c(c2)CCN3S(C)(=O)=O)cc1	inconclusive: 8.91 µM [activator, partial curve]
COc1ccc(CNc2ccnc(-c3ccccc3CN(C)C)n2)c(OC)c1	inactive
O=C(NCc1ccc(F)cc1)C1CCC(CNS(=O)(=O)c2cccs2)CC1 (configuration not stated)	inactive
COCCN=C1Sc2nc3c(C)cccc3cc2CN1Cc1ccco1	inconclusive: 22.4 µM [inhibitor, single point]
CC1(c2ccc(OC(F)F)cc2)NC(=O)N(/N=C/c2c(O)ccc3ccccc23)C1=O (configuration not stated)	inconclusive: 20 µM [inhibitor, single point]
CC(CCc1ccccc1)NC(=O)CC(C)c1ccccc1 (configuration not stated)	inconclusive: 3.55 µM [inhibitor, single point]
O=C(COC(=O)c1cc([N+](=O)[O-])ccc1N1CCOCC1)Nc1ncc(Cl)cc1Cl	inconclusive: 35.5 µM [inhibitor, single point]
Cc1cc(Cl)c2oc(C(=O)N(C)Cc3nccn3C)c(C)c2c1	inconclusive: 0.398 µM [inhibitor, partial curve, poor fit]
CCc1ccccc1NC(=S)N(Cc1cccs1)C1CCCC1	active: 11.2 µM
CC(=O)NC(=S)c1c(N)n(Cc2ccccc2)c(=O)n(C)c1=O	active: 2.82 µM
COc1ccc(/C=C(\NC(=O)c2ccccc2)C(=O)N/N=C/c2sccc2C)cc1	active: 11.2 µM
COC(=O)c1ccc(COc2ccc(/C=C/C(=O)c3ccc(OC)c(CSCC(=O)O)c3)cc2OC)cc1	inconclusive: 2.51 µM [activator, single point]
CCCCn1c(=O)[nH]c(=O)c2c1nc(-c1ccc(C)c([N+](=O)[O-])c1)n2CC	inactive
CCCCCC(=O)NC(=S)Nc1ccc(N2CCOCC2)cc1	active: 1.26 µM
COc1cc(NS(=O)(=O)c2ccc(N/C=C(\C=O)c3nc4ccccc4o3)cc2)nc(OC)n1	active: 8.91 µM
O=C(c1ccc(Br)cc1)N1CCN(Cc2ccccc2)CC1	inactive

Compound	Potency
CCCN(CC(=O)Nc1cc(Cl)cc(Cl)c1)CC(=O)Nc1ccc(F)c(F)c1F	inconclusive: 35.5 µM [inhibitor, single point]
COc1cccc(-c2cncnc2NCc2ccc(OC)cc2OC)c1	inconclusive: 22.4 µM [inhibitor, single point]
CC(=O)c1c(C)nn(CCC(=O)O)c1C	inactive
C1=Cc2ccccc2Nc2ccccc21	inconclusive: 35.5 µM [inhibitor, single point]
CC(OC(=O)C1=COCCO1)C(=O)Nc1ccc(Oc2ccccc2)cc1 (configuration not stated)	inconclusive: 31.6 µM [activator, single point]
Nc1c(C(=O)O)cnc2c(-c3ccc(Cl)cc3)cnn12	inconclusive: 0.891 µM [activator, full curve, poor fit]
Cc1ccsc1/C=N\NC(=O)c1ccc2c(c1)OCO2	active: 7.08 µM
COc1ccc(C(C)(C)C)cc1NC(=O)c1ccoc1C	active: 2.24 µM
N#Cc1ccc(OCC(O)CN2CCN(CC(O)COc3ccc(C#N)cc3)CC2)cc1 (configuration not stated)	inactive
COc1ccccc1-c1noc(-c2ccccc2)n1	inactive
CC1(C)C2CC=C(/C=N/NC(=S)Nc3cccnc3)C1C2 (configuration not stated)	active: 0.501 µM
COc1cccc(C=NCCCN=Cc2cccc(OC)c2O)c1O	active: 7.94 µM
CC(NC(=O)c1cccc(N(C)C)c1)c1ccc(-n2ccnc2)cc1 (configuration not stated)	inactive
O=C(Cc1ccccc1)Nc1scc(-c2ccccc2)c1C(=O)N1CCOCC1	inactive
C=CCSc1nnc(-c2ccc(Cl)cc2Cl)o1	inconclusive: 35.5 µM [inhibitor, single point]
COc1ccc(NC(=O)c2cc([N+](=O)[O-])ccc2N2CCCC2)cc1	inactive
CC[N+]1(C)CCC(=C2c3ccccc3CC(=O)c3sccc32)CC1 (configuration not stated)	inactive
CC(NC(=S)NNS(=O)(=O)c1ccc(C(C)(C)C)cc1)c1ccccc1 (configuration not stated)	active: 8.91 µM
O=C(O)/C=C/C(=O)NNC(=O)c1cccc(Br)c1	inconclusive: 25.1 µM [inhibitor, single point]
CCCOc1cccc(C(=O)NCCNC(=O)c2cnccn2)c1	inactive
O=C1Cc2cc(S(=O)(=O)Nc3cccc([N+](=O)[O-])c3)cc3c2N1CCC3	inconclusive: 12.6 µM [activator, partial curve]
O=C1Nc2ccccc2C(O)(C(=O)NCc2ccco2)N1c1ccc(Cl)c(Cl)c1 (configuration not stated)	inconclusive: 7.08 µM [activator, full curve]
Cc1cccc(C)c1NC(=O)CNC(=O)C(NC(=O)c1ccc(C(C)(C)C)cc1)C(C)C (configuration not stated)	inconclusive: 0.112 µM [inhibitor, full curve, poor fit]
Cc1cccc(OCc2n(CC(=O)OC3CC(C)CCC3C(C)C)c3ccccc3[n+]2C)c1 (configuration not stated)	inconclusive: 35.5 µM [inhibitor, single point]
O=C1CC(c2ccc3c(c2)OCCO3)Oc2ccc([N+](=O)[O-])cc21 (configuration not stated)	active: 11.2 µM
O=C1OCCC1Sc1nnc(-c2ccc(Cl)cc2Cl)o1 (configuration not stated)	active: 7.94 µM

2 entries picked at random from those above:
Compound	Potency
CC(OC(=O)C1=COCCO1)C(=O)Nc1ccc(Oc2ccccc2)cc1 (configuration not stated)	inconclusive: 31.6 µM [activator, single point]
COCCN=C1Sc2nc3c(C)cccc3cc2CN1Cc1ccco1	inconclusive: 22.4 µM [inhibitor, single point]

(cont.)

Compound	Potency
COc1ccc(N2CCN(C(=O)CN3CCN(c4nc(-c5ccc(F)cc5)cs4)CC3)CC2)cc1	inconclusive: 3.98 µM [activator, partial curve]
CCc1c(C)nc(SCC(=O)N2C(C)CCCC2C)[nH]c1=O (configuration not stated)	inconclusive: 11.2 µM [inhibitor, single point]
Cc1nc2ccccc2nc1N/N=C/c1ccc(O)cc1O	active: 11.2 µM
CCN1C(=O)c2cccc3c(S(=O)(=O)NCc4ccco4)ccc1c23	inactive
Cc1ncc([N+](=O)[O-])n1CC(=O)NC1CCCC1	inconclusive: 35.5 µM [inhibitor, single point]
CC(C)(C)NC(=O)c1ccc(NC(=O)c2ccccc2-c2ccccc2C(=O)O)cc1	inconclusive: 7.94 µM [activator, partial curve]
C/C(=N\NC(=O)c1ccccc1)c1c(C)[nH]n(-c2ccccc2)c1=O	active: 0.891 µM
COc1cc(C2Sc3ccccc3NC3=C2C(=O)OC3)cc(OC)c1OC (configuration not stated)	inconclusive: 22.4 µM [activator, single point]
Cc1ccc(S(=O)(=O)NCC(=O)N/N=C/c2ccccc2O)cc1	active: 5.62 µM
CC(C)(C)c1ccc(S(=O)(=O)Nc2cccnc2)cc1	inconclusive: 11.2 µM [activator, partial curve]
O=C(Nc1cccc(NC(=O)c2cccs2)c1)c1ccc(Br)cc1	inconclusive: 10 µM [activator, single point]
COCCCn1c2nc3ccccc3nc2c2c(=O)n(Cc3cccs3)cnc21	inactive
CCOc1ccc(-n2c(SC(C)C)nc3c(c2=O)SCC3)cc1	inconclusive: 3.55 µM [activator, partial curve, poor fit]
Cc1nn(Cc2ccc(C(=O)NC(C)(C)C)o2)c(C)c1Br	inconclusive: 3.55 µM [activator, partial curve]
Cc1ccc(C(=O)NCCc2cccc(Cl)c2)cc1[N+](=O)[O-]	inconclusive: 6.31 µM [activator, partial curve]
COC(=O)CCC(=O)Nc1cc(OC)c(OC)cc1Cc1nccc2cc(OC)c(OC)cc12	inactive
CCn1nc(C)c(NC(=O)CC23CC4CC(CC(C4)C2)C3)c1C	inconclusive: 7.94 µM [activator, single point]
CC(C)Cc1nnc(NC(=O)CSc2nc(O)c(-c3ccccc3)c(=O)[nH]2)s1	inactive
CCn1ccc(C(=O)Nc2ncc(C)s2)n1	active: 11.2 µM
O=C(CCn1c(=O)[nH]c2ccsc2c1=O)N1CCN(c2cccc(Cl)c2)CC1	inconclusive: 3.55 µM [activator, single point]
CN1CCc2c(sc3c2c(=O)n(-c2ccccc2)c2nnc(SCc4ccc(Cl)cc4)n32)C1	inactive
Oc1ccc(/C=C/c2ccc3cccc(O)c3n2)cc1Br	active: 3.16 µM
COc1ccc(-n2cccc2/C=C2/NC(=O)N(c3cccc(Cl)c3)C2=O)cc1	inactive
CCNC(=S)NNc1nnc(-c2ccccc2)c(-c2ccccc2)n1	active: 12.6 µM
COc1ccc2oc(C(=O)OC/C(O)=C(\C#N)c3nc4ccccc4[nH]3)c(C)c2c1	inconclusive: 6.31 µM [inhibitor, single point]

Six of these compounds in a different format.
Compound,Potency
COc1ccc(N2CCN(C(=O)CN3CCN(c4nc(-c5ccc(F)cc5)cs4)CC3)CC2)cc1,"inconclusive: 3.98 µM [activator, partial curve]"
Cc1nc2ccccc2nc1N/N=C/c1ccc(O)cc1O,active: 11.2 µM
O=C(Nc1cccc(NC(=O)c2cccs2)c1)c1ccc(Br)cc1,"inconclusive: 10 µM [activator, single point]"
COC(=O)CCC(=O)Nc1cc(OC)c(OC)cc1Cc1nccc2cc(OC)c(OC)cc12,inactive
CC(C)Cc1nnc(NC(=O)CSc2nc(O)c(-c3ccccc3)c(=O)[nH]2)s1,inactive
CCNC(=S)NNc1nnc(-c2ccccc2)c(-c2ccccc2)n1,active: 12.6 µM
